Source: US20210230600

By UniProt entry, the sequences of proteins in these tests, tags left out. Residues count along the entry.
UniProt Q9NZQ7, 19-290: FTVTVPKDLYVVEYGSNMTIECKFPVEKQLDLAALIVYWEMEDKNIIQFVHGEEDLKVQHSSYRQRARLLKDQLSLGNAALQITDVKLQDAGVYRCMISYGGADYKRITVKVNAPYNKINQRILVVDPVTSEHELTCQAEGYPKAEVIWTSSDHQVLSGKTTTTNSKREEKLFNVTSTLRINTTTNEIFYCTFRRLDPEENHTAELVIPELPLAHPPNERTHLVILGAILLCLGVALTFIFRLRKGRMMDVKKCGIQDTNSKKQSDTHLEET

How the values were obtained:
[1] = biological target: PD-L1 (UniProt Q9NZQ7); test: binding assay; conditions: plate-reader fluorescence on fixed cells, 700 nM, DPBS with Ca, Mg, KCl, 37 C; protein on the cell surface; protein details: on PFA-fixed MDA-MB-231 cells; label: Alexa647; single-stranded DNA
[2] = tested on: PD-L1 (mouse PD-L1 on CT-26 cells or human PD-L1 on CHO-K1 cells + the cell line shown is not stated) (Mus musculus / Homo sapiens); test: flow cytometry; conditions: protein on the cell surface, single-stranded DNA
[3] = 100 nM, on ice, BSA staining buffer, label: Alexa647

| Sequence | binding result [1] | binding result ([2]; 100 nM and 600 nM, also in DPBS with Ca, Mg and 1.33 mM KCl, label: Alexa647) | binding result [2, 3] | binding result ([2]; PS at all linkages, negative control without affinity for PD-L1) |
| --- | --- | --- | --- | --- |
| ACGGGCCACATCAACTCATTGATAGACAATGCGTCCACTGCCCGT [AptPDL1-45mer] | binds | binds | – | – |
| ACTCATTGATAGACAATGCGTGCCCGCAGC [AptPDL1-A4] | binds | – | binds | – |
| AGCGATTGATAGACAATCGCT [AptPDL1-n05] | – | – | binds | – |
| AGTTATGCTTTCCCCCTCTTTGATAGACAA [AptPDL1-2A] | binds | – | binds | – |
| ATGAACTCATTCATACACAATGCGTG [AptPDL1-n07] | binds | – | binds | – |
| GAACAAAGGTATTAGACATCTTGATAGACAA [AptPDL1-3A] | binds | – | binds | – |
| GTTGTTTTTTCACTCATTGATAGACAATGCGT [AptPDL1-1A] | binds | – | binds | – |
| TCGAACGTTCGAACGTTCGAACGTTCGAAT [CpG-L0-PS] | – | – | – | no binding |

Where cells or extracts were used, other partners may take part. For some assays here: The exact form of at least one protein or probe is not confirmed. For some assays here: Negatives hold for the conditions tested.
